The target of one test is T1, FLAG-HMGN5 (UniProt P82970).
T1 sequence: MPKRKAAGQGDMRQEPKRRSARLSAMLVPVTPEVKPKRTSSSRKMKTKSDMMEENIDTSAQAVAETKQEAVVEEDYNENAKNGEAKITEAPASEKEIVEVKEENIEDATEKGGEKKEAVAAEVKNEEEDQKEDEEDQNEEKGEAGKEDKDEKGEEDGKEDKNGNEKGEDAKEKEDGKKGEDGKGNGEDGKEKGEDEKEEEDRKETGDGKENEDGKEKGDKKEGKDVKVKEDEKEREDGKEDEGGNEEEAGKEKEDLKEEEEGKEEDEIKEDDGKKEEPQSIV
As to the kind of experiment: co-IP.

Amino acid sequences for entries named in this document (tags omitted).
UniProt P40763: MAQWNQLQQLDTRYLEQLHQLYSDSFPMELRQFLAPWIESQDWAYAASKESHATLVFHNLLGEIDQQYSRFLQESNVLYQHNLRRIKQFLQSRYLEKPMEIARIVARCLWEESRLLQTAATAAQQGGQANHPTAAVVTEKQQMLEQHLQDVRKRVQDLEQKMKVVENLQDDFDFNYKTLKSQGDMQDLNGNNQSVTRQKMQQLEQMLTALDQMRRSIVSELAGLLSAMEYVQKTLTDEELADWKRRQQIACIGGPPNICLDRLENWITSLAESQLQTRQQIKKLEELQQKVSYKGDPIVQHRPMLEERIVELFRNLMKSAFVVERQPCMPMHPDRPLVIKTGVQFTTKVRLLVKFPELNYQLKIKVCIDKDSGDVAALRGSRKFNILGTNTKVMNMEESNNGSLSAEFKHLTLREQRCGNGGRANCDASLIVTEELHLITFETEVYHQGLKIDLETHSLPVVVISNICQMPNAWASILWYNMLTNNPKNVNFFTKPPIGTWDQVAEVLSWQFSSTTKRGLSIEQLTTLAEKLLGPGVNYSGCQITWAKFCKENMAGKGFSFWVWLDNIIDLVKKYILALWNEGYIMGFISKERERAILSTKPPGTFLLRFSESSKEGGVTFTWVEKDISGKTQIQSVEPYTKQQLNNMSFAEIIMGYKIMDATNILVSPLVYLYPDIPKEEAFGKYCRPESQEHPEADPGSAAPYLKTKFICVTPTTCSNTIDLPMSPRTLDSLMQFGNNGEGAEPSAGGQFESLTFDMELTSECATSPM

Test [1] deals with T2, endogenous HMGN5 (human (endogenous in MDA-MB-231)) (UniProt P82970).
T2 sequence: T1 sequence
Put plainly: co-IP.

Results are given in words; binding and its absence hold for the method and conditions named. In cells and extracts the contact can be indirect. Some entries that bind do so weakly or less than the wild type. For some assays here: Sequences can lack the tags named with a protein.

Consider STAT3 (from UniProt P40763 1-770), for which the binding result in the test with FLAG-HMGN5 is given as “binds”. As to “endogenous STAT3 (from UniProt P40763 1-770)”, the binding entry in test [1] is reported as “binds”.

These data come from publication doi:10.1101/2022.01.04.474868.
